Source: ChEMBL document CHEMBL3988442, “University of Dundee, Small-Polar-MMV Screening Library” (2021).

By UniProt entry, the sequences of proteins in these tests, tags left out.
UniProt E9BF75, entry or part of it: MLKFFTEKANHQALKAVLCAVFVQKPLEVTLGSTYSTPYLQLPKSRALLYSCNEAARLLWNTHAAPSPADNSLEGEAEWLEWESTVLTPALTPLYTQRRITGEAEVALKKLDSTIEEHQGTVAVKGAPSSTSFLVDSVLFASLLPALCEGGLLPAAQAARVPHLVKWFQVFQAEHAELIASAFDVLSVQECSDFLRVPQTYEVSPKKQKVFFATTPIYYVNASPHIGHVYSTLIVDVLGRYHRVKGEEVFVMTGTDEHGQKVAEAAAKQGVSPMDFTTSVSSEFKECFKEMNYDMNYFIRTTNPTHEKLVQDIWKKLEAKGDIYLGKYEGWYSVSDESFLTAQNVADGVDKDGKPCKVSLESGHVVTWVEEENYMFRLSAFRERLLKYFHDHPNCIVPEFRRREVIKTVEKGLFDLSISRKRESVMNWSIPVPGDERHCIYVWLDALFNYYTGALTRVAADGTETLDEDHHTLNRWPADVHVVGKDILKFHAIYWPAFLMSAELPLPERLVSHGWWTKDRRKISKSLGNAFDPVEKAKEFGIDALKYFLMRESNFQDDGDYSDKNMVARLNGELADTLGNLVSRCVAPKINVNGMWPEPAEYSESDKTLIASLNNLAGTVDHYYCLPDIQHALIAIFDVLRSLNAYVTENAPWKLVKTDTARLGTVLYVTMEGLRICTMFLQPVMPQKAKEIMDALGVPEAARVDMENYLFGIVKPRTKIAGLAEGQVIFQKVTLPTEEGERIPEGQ

Results are percentages, as filed.
The controls that fix the scale are not given in the record; negative values are as filed.
The compounds are a random part of those screened.

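Methionyl-tRNA synthetase (putative), Leishmania donovani (UniProt E9BF75). Primary screen of methionyl-tRNA synthetase; the read-out is not stated. The test concentration is not given. The values are filed as inhibition. Size under these conditions: about 68,000 compounds, about 24 of them at 50% or above in at least one test.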

| # | Compound | Inhibition |
|---|---|---|
| 1 | `NC(=O)c1ccc(CNC2CC2)cc1` | 32.08% |
| 2 | `O=C(NCC1CCCO1)c1cc(-c2ccncc2)c2cnccc2n1` (centres undefined) | -0.9524% |
| 3 | `CC(CC#N)N(C)Cc1ccc(F)cc1F` (centres undefined) | 8.014% |
| 4 | `Cc1ccc(CN(CCN(C)C)C(=O)Nc2cnn(C)c2)s1` | 12.64% |
| 5 | `CCOC(=O)COc1cccc(NC(=O)C2COCCO2)c1` (centres undefined) | 11.54% |
| 6 | `CCc1[nH]ncc1C(=O)N1CCCN(Cc2cnn(C(C)C)c2)CC1` | 5.229% |
| 7 | `CC(C)CN1CCC2(CC1)CN(C(=O)C(C)C)C2` | 11.67% |
| 8 | `COc1cc(OC)cc(C(=O)N(C)Cc2nnc3ccccn23)c1` | 23.2% |
| 9 | `Cc1c(S(=O)(=O)N2CCOCC2)cc2c(C)cc(=O)n3c2c1CCC3` | 12.81% |
| 10 | `CCN(c1ccc(C(=O)NCCCN2CCCC2)cc1)S(=O)(=O)CC` | 11.97% |
| 11 | `COc1cccc([C@H]2CN(C(=O)c3ccccc3)[C@@H]3CCCN[C@H]23)c1` | 5.161% |
| 12 | `O=C(O)c1ccnc(-c2ccnc(COc3ccccc3Cl)n2)c1` | 13.54% |
| 13 | `CCOC(=O)[C@H]1[C@@H](O)C(=O)N(C)C12CCN(S(=O)(=O)CC)CC2` | 10.54% |
| 14 | `CCc1nc(C2CCCN2C(=O)c2ccc3c(c2)COC3)no1` (centres undefined) | 26.88% |
| 15 | `CNS(=O)(=O)c1ccc(CN2CCCN(c3ccccc3)CC2)cc1` | 5.292% |
| 16 | `CNC(=O)C(C)(C)CNC(=O)Nc1cc(C)ccn1` | 6.62% |
| 17 | `COc1ccccc1OCCC(=O)NCc1ncc(C)c(OC)c1C` | 19.24% |
| 18 | `CC(CNC(=O)c1cnccn1)Oc1ccc(F)cc1` (centres undefined) | -14.14% |
| 19 | `COCCC(=O)N1CCC2(CC1)CN(S(C)(=O)=O)Cc1ccccc1O2` | 9.006% |
| 20 | `Cc1cccc(CN2CCn3c(COc4ncccn4)nnc3C2)n1` | 9.15% |
| 21 | `Cc1ccc(NC(=O)CN2CCOCC2)c(F)c1` | 0.5376% |
| 22 | `CC(NC(=O)NCC(F)(F)F)c1nncn1C` (centres undefined) | 18.61% |
| 23 | `COc1ccccc1-c1cccc(C2CCCN(C3CCOCC3)C2)n1` (centres undefined) | 9.884% |
| 24 | `Cn1cnnc1C1CCN(C(=O)CCCOc2ccccc2)CC1` | 13.86% |
| 25 | `CN(CC1CN(Cc2cn3ccsc3n2)CCO1)c1cccnn1` (centres undefined) | 4.167% |
| 26 | `c1c(CN2CCOCC2)nc2n1CCN(CC1CC1)C2` | 6.557% |
| 27 | `COCc1nc(N(C)C)ncc1C(=O)Nc1cc(C)cc(C)c1` | 3.769% |
| 28 | `O=C(NCc1cccc(F)c1)NC1CCCN(c2ncccn2)C1` (centres undefined) | -4.7% |
| 29 | `COc1ccc(Cl)cc1CN(C)CC(=O)/N=c1\cc[nH]n1C(C)C1CC1` (centres undefined) | 8.247% |
| 30 | `Cc1noc(-c2cccnc2N(C)Cc2ccc([S+](C)[O-])cc2)n1` (centres undefined) | 7.459% |
| 31 | `COc1ccc(CNC(=O)NC2CCC(O)CC2)c(C(F)(F)F)c1` (centres undefined) | 16.81% |
| 32 | `CNC(=O)[C@@H]1C[C@@H](NC(=O)Cc2nonc2C)CN1Cc1sccc1C` | 14.65% |
| 33 | `CN1C[C@@H](NC(=O)C(C)(C)C)C[C@H]1C(=O)NCc1ncc[nH]1` | 13.59% |
| 34 | `O=C1CC2(CCCCN2C(=O)c2ccoc2)CN1Cc1ccccc1` (centres undefined) | 7.778% |
| 35 | `CCN(c1ccc(C(=O)N2CCCC2)cc1)S(=O)(=O)CC` | 8.85% |
| 36 | `CS(=O)(=O)CCCN1CCOC2(CCc3ccccc32)C1` (centres undefined) | 0.8065% |
| 37 | `COc1ccc(C(=O)NC2CCN(c3ncccn3)CC2)cc1F` | 9.059% |
| 38 | `COCCN1CCN(Cc2ccncc2)c2ncccc2C1` | 12.09% |
| 39 | `CCOCCN1CCN(CC(O)c2cc(Cl)ccc2Cl)CC1` (centres undefined) | 14.78% |
| 40 | `CC1CN(C(=O)CCc2cc(Br)cs2)CCO1` (centres undefined) | 12.57% |
| 41 | `Cc1ccc(CN2C[C@@H](N(C)C)[C@H]3OCCC[C@H]32)o1` | 8.696% |
| 42 | `CSc1cccc(CN(C)C(=O)CN2CCN(c3ncccn3)CC2)c1` | 21.7% |
| 43 | `CCn1c(C2CCCN(Cc3nccn3CCOC)C2)nn(C)c1=O` (centres undefined) | 16.73% |
| 44 | `O=C(NCC1CC2(CO1)CN(Cc1cccs1)C2)C1CCC1` (centres undefined) | 1.558% |
| 45 | `NC(=O)NCC1CCCCN1C(=O)c1cccc(C(F)(F)F)c1` (centres undefined) | 11.02% |
| 46 | `O=C1Nc2ccccc2CC12CCN(CCO)C2` (centres undefined) | 21.17% |
| 47 | `Cn1cc(-c2cnc(N3CCOCC3)nc2)cc1C(=O)NCCO` | 10.8% |
| 48 | `COCCCNc1nc(CNC(=O)C2CCC2)cc(-c2ccco2)n1` | 11.41% |
| 49 | `O=C(Cc1cccs1)N1CC[C@H]2[C@H]1CCN2Cc1cccnc1` | 17.93% |
| 50 | `COc1ncccc1CN1CC[C@@]2(O)CCN(C(=O)C3CCC3)C[C@H]2C1` | 6.959% |
| 51 | `CN1CCCN(S(C)(=O)=O)c2cc(F)ccc21` | 10.53% |
| 52 | `CN1CCN(c2cc(CNCc3cccc4c3OCO4)ccn2)CC1` | 10.86% |
| 53 | `CN(C)S(=O)(=O)N1C[C@@H](OCc2ccccn2)[C@H]2OCCC[C@H]21` | 9.929% |
| 54 | `CC(C)N(C)CCC(=O)N1CCCC(c2ccc(C(=O)O)cc2)C1` (centres undefined) | 8.447% |
| 55 | `Cc1n[nH]cc1CNC(C)c1cccc(N2CCCC2=O)c1` (centres undefined) | 7.692% |
| 56 | `COC(=O)NCC(=O)N1CCCC1c1nc(-c2ccccc2F)c[nH]1` (centres undefined) | -2.857% |
| 57 | `CC(C)c1ncc(CN2C[C@@H](CN3CCC(CO)CC3)[C@@H](CO)C2)cn1` | 10.73% |
| 58 | `Cc1nc(CN(Cc2cccs2)C2CCS(=O)(=O)C2)oc1C` (centres undefined) | 15.75% |
| 59 | `O=C1CCc2cc(NC(=O)N3CCCN(Cc4cccs4)CC3)ccc21` | 0.7732% |
| 60 | `O=C(NCCc1cccs1)NC1CCN(c2ncccn2)CC1` | 2.454% |
| 61 | `Cc1nc[nH]c1CN1CCCN(c2nc3ccccc3s2)CC1` | 10.45% |
| 62 | `CCCN1CCC2(C1)c1ccccc1S(=O)(=O)N2C` (centres undefined) | 13.78% |
| 63 | `CCN1CCC(NC(=O)CNC(C)Cn2cccn2)CC1` (centres undefined) | 4.261% |
| 64 | `c1cnc(CC2COCCN(C3CCCCC3)C2)cn1` (centres undefined) | 24.84% |
| 65 | `CCC(NC(N)=O)c1ccccc1OCC(=O)N1CCCC1` (centres undefined) | 11.04% |
| 66 | `c1c(CN2CCCC2)nc2n1CCN(CC1CC1)C2` | 1.718% |
| 67 | `c1ccc(-c2noc([C@@H]3Cc4nc[nH]c4CN3)n2)cc1` | 0% |
| 68 | `CCN(C1CCN(C(=O)c2cccc(Cl)c2)CC1)S(C)(=O)=O` | 19.78% |
| 69 | `COC(=O)CN1CCN(c2cccc(C)c2)CC1` | 12.06% |
| 70 | `COc1ccccc1CC(=O)N1C[C@H]2CC[C@@H]1CN(Cc1cscn1)C2` | 8.257% |
| 71 | `Cc1ncsc1C(=O)N1CCCC1c1c(C)nn(C)c1Cl` (centres undefined) | 13.68% |
| 72 | `O=C(Cc1csc(N2CCNC2=O)n1)NCC1(c2ccccc2)CC1` | 10.84% |
| 73 | `CN(C)S(=O)(=O)N1CCC(c2cccc(Cc3ccccc3Cl)n2)CC1` | 0.7059% |
| 74 | `Cc1nc(CCN)cc(N(C)Cc2nc3ccc(F)cc3[nH]2)n1` | 8.437% |
| 75 | `c1cncc(CO[C@H]2CC[C@H]3[C@@H]2OCCN3C2CCOCC2)c1` | 12.5% |
| 76 | `CCN(C(=O)CN1CCCC1c1cccs1)c1ccccc1C` (centres undefined) | 18.56% |
| 77 | `CCC(O)CN1CCN(C(=O)c2ccn(C)c(=O)c2)CC1` (centres undefined) | 17.48% |
| 78 | `Cc1ccsc1C(=O)N1CCC2(CC(N(C)c3ccncn3)C2)C1` (centres undefined) | 10.59% |
| 79 | `CC1(C)Cc2nc(C(C)(C)C)ncc2C(NC(=O)Cc2nnn[nH]2)C1` (centres undefined) | 14.24% |
| 80 | `CC(Cc1ccc(Cl)cc1)NC(=O)Nc1cnn(CC(N)=O)c1` (centres undefined) | 19.2% |
| 81 | `CCc1c(C)n(CCOC)c2nc3ccccc3n2c1=O` | 8.579% |
| 82 | `CN(C)CCCNc1ncnc2cccc(F)c12` | 2.899% |
| 83 | `CCCS(=O)(=O)NC(=O)c1sc(C2CCCC2)nc1C` | 12.85% |
| 84 | `CC(Nc1cccc(CN2CCOC2=O)c1)C(=O)Nc1ccccc1` (centres undefined) | 18.2% |
| 85 | `CCc1cc(C(F)(F)F)c2c(C3CCN(C(=O)COC)CC3)noc2n1` | 11.65% |
| 86 | `COCC1CN(C(=O)Cc2cccs2)Cc2nnn(CC3CC3)c21` (centres undefined) | 4.323% |
| 87 | `Cn1nc(C(=O)N2CCOCC2)cc1C(=O)Nc1cc(Cl)cc(Cl)c1` | 10.5% |
| 88 | `CS(=O)(=O)N1CCC2(CC1)CC(NCc1ccccn1)c1ccccc12` (centres undefined) | 4.106% |
| 89 | `Cc1ncc(CC(=O)N2CCC3(CCC(=O)N(C4CC4)C3)CC2)c(=O)[nH]1` | 5.16% |
| 90 | `Cc1ccc(OCC(=O)Nc2ccc(S(C)(=O)=O)cc2)cc1C` | 2.801% |
| 91 | `CN(C)C(=O)CN1CCN(c2ncccn2)[C@@H]2CS(=O)(=O)C[C@@H]21` | -4.963% |
| 92 | `NC(=O)C1CCN(CCc2ccc(NC(=O)C3CCC3)cc2)CC1` | 14.92% |
| 93 | `O=C([C@H]1C[C@H]2OCC[C@H]2N(C(=O)c2ccnnc2)C1)N1CCCCO1` | 4.444% |